Test results taken from article PMC5393187.
Results are given in words; binding and its absence hold for the method and conditions named. Binding seen in cells or lysates may run through a third protein. Some binding calls cover weakened binding; strength is not graded here. Tags and fused reporters may be left off the sequences shown.

Target: T1, Cue3, epitope-tagged (S. cerevisiae) (UniProt P53137)
T1 sequence: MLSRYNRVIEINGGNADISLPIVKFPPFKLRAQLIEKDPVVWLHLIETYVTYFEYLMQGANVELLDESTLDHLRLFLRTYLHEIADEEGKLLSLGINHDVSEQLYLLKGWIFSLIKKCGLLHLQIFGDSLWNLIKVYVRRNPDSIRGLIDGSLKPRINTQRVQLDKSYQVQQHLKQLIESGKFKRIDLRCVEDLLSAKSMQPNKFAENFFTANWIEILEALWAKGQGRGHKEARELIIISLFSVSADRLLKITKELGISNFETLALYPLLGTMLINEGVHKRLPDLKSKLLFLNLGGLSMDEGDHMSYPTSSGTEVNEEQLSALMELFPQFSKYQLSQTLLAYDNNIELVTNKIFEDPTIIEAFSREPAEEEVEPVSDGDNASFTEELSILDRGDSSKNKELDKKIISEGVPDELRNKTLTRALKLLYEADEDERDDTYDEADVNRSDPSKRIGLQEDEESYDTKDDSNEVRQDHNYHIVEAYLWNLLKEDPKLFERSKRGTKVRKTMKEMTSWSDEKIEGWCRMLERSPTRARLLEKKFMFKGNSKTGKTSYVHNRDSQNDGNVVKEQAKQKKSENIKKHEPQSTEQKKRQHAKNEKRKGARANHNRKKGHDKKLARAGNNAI
Experiment: co-IP; IPs from cryo-ground yeast extract on Anti-FLAG M2 Affinity Resin, 1 h, 4°C, IP buffer (20 mM HEPES K pH 7.4, 100 mM KOAc, 10 mM MgCl2); detected by immunoblot (anti-HA, anti-Flag)

B1: Ykr023w, epitope-tagged (protein, UniProt P36119 1-530)
chain: MTRKQAIDYAIKQVPQILPLEESDVKALCEQVLSTSSDDPEQIASKFLEFLGHEDLSFEFVMKFNELLNQNDKKEEKKTKNVHLEHTAPTSWKNESKQPTNNYINKKGDEKPKKLKDEKKSSTTRPTVQPSNQSTQSNPIKEKKEHRSKGKLQSLQEIDEAIKMLELRDSGSSKNCNCQGTRHPVFDIAPNCLHCGKVVCVIEGLNKGKCGHCHEQLISDNERTQMVEILNQEKNELNGSSSSLSNASNGANVPKKKTKTYKITSGMGKNLFAEQDKLFDFIERKRERERKRNEVLKLQEEKEESEAKERQASEHDHKAEENPELLAAQERLDRLLYFQDTSAERTKIIDNASDFDMNQEVGLWGSARERALALKKQQRNLRKWEKVEKERNGRREKYVVSMNIGSNGKVTMTEVPKDTENVIAGSDDDISDISDEEDISDLKHIHALKSEINTTKSLENLHLQSKAWDYERDKKQFDRPTYVKKNSDTAQQNRKTEEKAHDMQAYDLKSRVQVDQNADASVEQNILAVL
For B1, the binding was “binds”.
